Values of other authors as cited in US20240300946A1, “EGFR INHIBITORS” (Blueprint Medicines Corporation, priority 2021, published 2024).
Some of these results come from one statement about several compounds together.

System: EGFR mutant NSCLC tumors
Conditions: EGFR M+ NSCLC patients treated first line (1 L); cited from earlier work

Structure (SMILES): C=CC(=O)Nc1cc(Nc2nccc(-c3cn(C)c4ccccc34)n2)c(OC)cc1N(C)CCN(C)C [osimertinib]
- objective response rate (ORR): 60-85%
